A short description of this assay: qHTS Assay for Modulators of Lamin A Splicing. As to conditions: HeLa LMNA splicing GFP/RFP minigene ratio, 48 h. A digest of the protocol:
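S3 HeLa stable clones carrying a lamin A-EGFP splicing minigene plus DsRed2 were seeded at 600 cells/well in Opti-MEM with 2% FBS, pin-dosed and incubated 48 h at 37°C. Acumen cytometry (488 nm) gave the GFP/RFP total-intensity ratio.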

[1] abbreviates: measured here: GFP splicing reporter channel.
The mark [2] stands for this setting: measured here: RFP viability control channel.

Some of the results follow. Further columns of the screen follow, without active or inactive calls. The list favours compounds with an active or inconclusive main result. Words in brackets tell the shape of the fitted curve; partial curves, single points and poor fits give uncertain potencies.

On to `CC1=C(C(=O)O)N2C(=O)[C@@H](NC(=O)[C@@H](N)c3ccccc3)[C@@H]2SC1`, for which, under setting [1], the AC50 was 0.00708 µM [falling, full curve, poor fit].
As to `CCc1ccc(S(=O)(=O)NCc2cn3ccccc3n2)s1`, under setting [2], the AC50 is 12.6 µM [rising, partial curve, poor fit].
On to `Cc1cc2cc(CN(CC3CCCO3)C(=S)NCc3ccco3)c(=O)[nH]c2cc1C` (stereo not drawn), for which the AC50 under setting [2] is 28.2 µM [rising, single point].
With `Cc1ccc(S(=O)(=O)N2CCCCC2)cc1NC(=O)CSc1nnc(N)s1`, the AC50 under setting [1] was 0.0251 µM [falling, full curve, poor fit] and the AC50 under setting [2] is 0.0141 µM [falling, full curve, poor fit].
Take `O=[N+]([O-])c1ccc(-c2csc(Nc3ccccc3)[n+]2Cc2ccccc2)cc1`: the AC50 is, setting by setting: under setting [1], 8.91 µM [rising, partial curve, poor fit]; under setting [2], 12.6 µM [rising, partial curve].
Consider `COc1cccc(CNC(=O)c2cc(Sc3cccc(Cl)c3)nc3ccccc23)c1`, for which the AC50 under setting [2] was 3.98 µM [rising, full curve, poor fit].
As to `Oc1c(Cl)cc(Cl)cc1C(C#Cc1ccccc1)N1CCOCC1` (stereo not drawn), the AC50 reads like this: under setting [1], 35.5 µM [falling, single point]; under setting [2], 35.5 µM [falling, single point].
`O=C(Nc1ccc2c(c1)CCC2)c1ccc(F)c(S(=O)(=O)N2CCOCC2)c1`: the AC50 is, setting by setting: under setting [1], 11.2 µM [rising, partial curve]; under setting [2], 22.4 µM [rising, partial curve].
Turning to `Cc1cc(C)cc(-n2nnnc2SCC(=O)Nc2nc(-c3ccc(Cl)cc3)cs2)c1`, the AC50 is, setting by setting: under setting [1], 25.1 µM [falling, single point]; under setting [2], 35.5 µM [falling, single point].
Consider `O=C(/C=C/C=C/c1ccccc1)CC1(O)C(=O)N(CCc2ccccc2)c2ccccc21` (stereo not drawn), for which the AC50 by setting is: under setting [1], 17.8 µM [falling, single point]; under setting [2], 25.1 µM [falling, single point].
Consider `Cc1cc(C)c2c(N)c3ccccc3nc2n1`, for which the concentration at half-maximal activity (AC50) is, setting by setting: under setting [1], 11.2 µM [falling, single point]; under setting [2], 7.94 µM [falling, partial curve, poor fit].
In the case of `CC(C)(C)OC(=O)N1CCC(c2c(C(=O)NCCc3ccccc3)cnn2-c2ccc(F)cc2F)CC1`, the AC50 under setting [1] was 0.158 µM [rising, full curve, poor fit].
As for `COc1ccc(-c2c(C)c3ccc(O)c(CN4CCN(CCO)CC4)c3oc2=O)cc1OC`, the AC50 under setting [1] was 22.4 µM [falling, single point] and the AC50 under setting [2] was 0.0224 µM [falling, full curve, poor fit].
Take `Cc1nc2ccccc2n1C1CCN(C(=O)Nc2ccccc2)CC1`: under setting [2], the AC50 was 39.8 µM [falling, partial curve, poor fit].
Take `CCOc1cc(N2CCOCC2)c(OCC)cc1NC(=O)c1ccc(NC(C)=O)cc1`: the AC50 reads like this: under setting [1], 3.98 µM [falling, full curve, poor fit]; under setting [2], 4.47 µM [falling, single point].
For `COc1ccc(CC(=O)NCc2nnc(SCC(=O)Nc3ccccc3)n2C)cc1`, the half-maximal activity concentration (AC50) under setting [1] is 0.00447 µM [falling, full curve, poor fit].
Same read-out and setting: as for `O=c1c2cn[nH]c2nc(SCc2c(F)cccc2F)n1-c1ccc(Cl)cc1`, the figure is 12.6 µM [falling, partial curve].
On to `O=c1c2cc(N3CCOCC3)ccc2[nH]c(=S)n1Cc1cccc(Cl)c1`, for which the AC50 under setting [2] was 0.501 µM [falling, full curve, poor fit].
Still for that read-out and setting: as for `CC(C)(C)c1cc(C(F)(F)F)nc(SCCCNC(=O)c2ccco2)n1`, the figure is 22.4 µM [rising, single point].
Turning to `O=C(Nc1nc2ccc(SC(F)F)cc2s1)c1ccc(NS(=O)(=O)c2ccc(F)c(F)c2)cc1`, the AC50 by setting is: under setting [1], 35.5 µM [falling, single point]; under setting [2], 35.5 µM [falling, single point].
As to `COC1C(OC(=O)/C=C/C=C/C=C/C=C/C(=O)O)CCC2(CO2)C1C1(C)OC1CC=C(C)C` (stereo not drawn), the AC50 is, setting by setting: under setting [1], 35.5 µM [falling, single point]; under setting [2], 15.8 µM [falling, single point].
`CCOC(=O)c1sc(N)c(C#N)c1CSc1nc2ccc(C)cc2[nH]1`: under setting [1], the AC50 was 3.98 µM [rising, partial curve].
With `CCn1c(-c2ccccc2Cl)nn(CC(=O)NCCc2ccccc2)c1=S`, under setting [2], the concentration at half-maximal activity (AC50) was 22.4 µM [rising, single point].
Turning to `CS(=O)(=O)N(CC(=O)N1CCN(C(c2ccccc2)c2ccccc2)CC1)C1CCCCC1`, the concentration at half-maximal activity (AC50) was 12.6 µM [rising, partial curve] under setting [1] and 12.6 µM [rising, partial curve] under setting [2].
For `COc1ccc2cc(/C=N/NC(=O)c3ccc(CN(c4cccc(Cl)c4Cl)S(C)(=O)=O)cc3)c(Cl)nc2c1`, the AC50 was 0.891 µM [rising, full curve] under setting [1] and 2 µM [rising, full curve] under setting [2].
In the case of `CN1C(=O)/C(=C/c2ccc3c(c2)OCO3)N=C1c1ccccc1`, under setting [1], the AC50 is 11.2 µM [rising, partial curve, poor fit].
For `O=C1C(c2ccc(F)cc2)N(CCc2ccccc2)C(=O)CN1C1CCCCCC1` (stereo not drawn), under setting [2], the half-maximal activity concentration (AC50) is 0.282 µM [falling, partial curve].
Same read-out and setting: for `COc1cc(/C=N/NC(=O)C(=O)/C=C2\NC3(CCCC3)Cc3ccccc32)ccc1O` the value was 15.8 µM [rising, single point].
`CCOc1ccc(N2CC(O)=C(c3nc4ccccc4c(=O)[nH]3)C2=N)cc1`: the concentration at half-maximal activity (AC50) reads like this: under setting [1], 1.58 µM [rising, partial curve]; under setting [2], 5.01 µM [rising, partial curve, poor fit].
For `CCN1CCN(CC(=O)N/N=C/c2ccc(F)cc2F)CC1`, the AC50 under setting [2] was 6.31 µM [rising, full curve].
Same read-out and setting: as for `COc1ccc(-n2c(-c3ccc(Br)cc3)c[n+]3c2CCc2ccccc2-3)cc1`, the figure is 5.62 µM [rising, single point].
With `O=C(/C=C/c1ccc(Cl)cc1Cl)c1cccnc1`, the AC50 under setting [1] is 0.794 µM [rising, full curve, poor fit] and the AC50 under setting [2] was 12.6 µM [rising, partial curve, poor fit].
For the molecule `CC(C)C(c1nnnn1C1CCCC1)N1CCCc2ccccc21` (stereo not drawn), the AC50 under setting [1] is 35.5 µM [rising, single point].
Turning to `COc1ccc(/C=N/OCC(=O)N=Nc2c(O)[nH]c3ccc(Br)cc23)cc1OC`, the half-maximal activity concentration (AC50) by setting is: under setting [1], 1.12 µM [rising, full curve]; under setting [2], 1.12 µM [rising, full curve].
As to `O=C(Oc1ccc2ccc(=O)oc2c1)c1cccs1`, the AC50 runs as follows: under setting [1], 0.00355 µM [falling, full curve, poor fit]; under setting [2], 0.00447 µM [falling, full curve, poor fit].
`O=C1OC(c2ccccc2)=C/C1=C/N1CCOCC1`: under setting [2], the AC50 was 0.891 µM [rising, full curve].
For `Cc1ccc(-c2cc(C(=O)N/N=C/C=C/c3ccco3)c3ccccc3n2)cc1C`, the AC50 under setting [2] is 10 µM [rising, partial curve].
As for `CN(C(=O)CSc1nc(-c2ccc(F)cc2)cs1)C1CCS(=O)(=O)C1` (stereo not drawn), the AC50 under setting [1] is 14.1 µM [rising, single point].
With `CCOC(=O)c1[nH]c(C)c(C(=O)NCc2ccc(Cl)cc2)c1C`, under setting [2], the AC50 was 35.5 µM [rising, single point].
On the same count and under the same terms, as for `CN(C)S(=O)(=O)c1ccc(Cl)c(C(=O)Nc2ccccc2[N+](=O)[O-])c1`, the figure is 20 µM [rising, single point]; as for `CN(C)c1cccc(C(=O)NCc2ccccc2)c1`, 0.224 µM [falling, full curve, poor fit].
For the molecule `CCOC(=O)C(NC(C)=O)C(=O)Nc1ccc(C(C)(C)C)cc1` (stereo not drawn), the AC50 under setting [1] was 0.0562 µM [falling, full curve].
In the case of `Cc1c(C(=O)C(=O)N2CCCc3ccccc32)c2ccccc2n1C`, the AC50 under setting [2] was 6.31 µM [rising, full curve].
On to `CN(C)S(=O)(=O)c1cc(NC(=O)CSc2ncc(C(F)(F)F)cc2Cl)ccc1Cl`, for which the AC50 by setting is: under setting [1], 8.91 µM [rising, partial curve]; under setting [2], 12.6 µM [rising, partial curve].
Take `CCc1cccc(C)c1NC(=O)CSc1nnc(CCCOc2ccc(Cl)cc2Cl)n1C`: under setting [2], the half-maximal activity concentration (AC50) was 12.6 µM [rising, partial curve, poor fit].
Take `Cc1ccc(OCC(=O)Nc2ccccc2OCc2cc(=O)n3ccccc3n2)cc1C`: under setting [2], the AC50 was 15.8 µM [rising, partial curve, poor fit].
As for `Cc1cccc(NC(c2ccccc2F)c2ccc3ccc(C)nc3c2O)n1` (stereo not drawn), under setting [1], the AC50 is 35.5 µM [falling, single point].
Still for that read-out and setting: for `CCc1cccc(C)c1NC(=O)Cn1nc(C)c2nn(-c3ccc(Cl)cc3)c(C)c2c1=O` the value was 22.4 µM [falling, single point].
Regarding `CCN(CC(=O)NC(C)(C)C)C(=O)CCl`, under setting [2], the AC50 was 35.5 µM [rising, single point].
As for `COc1ccc(-c2nc(C#N)c(N3CCCCCC3)o2)cc1OC`, the AC50 under setting [2] is 14.1 µM [rising, single point].
Still for that read-out and setting: as for `Cc1cc(=O)[nH]c(SCC(=O)Nc2nc(-c3ccccc3)c(-c3ccccc3)o2)n1`, the figure is 8.91 µM [rising, partial curve, poor fit]; as for `Nc1nc2ccc(-c3nc4ccccc4o3)cc2s1`, 7.08 µM [falling, full curve, poor fit].
Regarding `Cc1ccc2c(c1)nnn2C1CCN(C(=O)C2CCCCC2)CC1`, the AC50 under setting [1] is 15.8 µM [rising, single point] and the AC50 under setting [2] was 12.6 µM [rising, partial curve].
In the case of `O=c1nc2c(O)cccn2c2c1c(=O)[nH]c1ccccc12`, the AC50 under setting [1] was 0.112 µM [falling, full curve, poor fit].

The values are drawn from PubChem BioAssay AID1487 (National Center for Advancing Translational Sciences (NCATS), 2009).
